Test results taken from article PMC3171469, “Multiple ETS Family Proteins Regulate PF4 Gene Expression by Binding to the Same ETS Binding Site”.

Key:
[1] = molecular target: T1, ELF-1 (HEL nuclear extract) (UniProt P32519); test: competition with a labelled probe; settings: band I not inhibited by mutant competitor; 2 mM HEPES-NaOH pH 7.9, 5 mM KCl, 2% glycerol, 0.01 mM EDTA, 0.25 mM DTT, 0.1 mg/ml BSA, 5 ng/ul poly dI-dC, 50 fmol probe, 40 min at 4 C; 4% native gel, 0.5x TBE; protein in an extract; label: 32P as probe, unlabelled as competitor
T1 sequence (looked up, limits assumed): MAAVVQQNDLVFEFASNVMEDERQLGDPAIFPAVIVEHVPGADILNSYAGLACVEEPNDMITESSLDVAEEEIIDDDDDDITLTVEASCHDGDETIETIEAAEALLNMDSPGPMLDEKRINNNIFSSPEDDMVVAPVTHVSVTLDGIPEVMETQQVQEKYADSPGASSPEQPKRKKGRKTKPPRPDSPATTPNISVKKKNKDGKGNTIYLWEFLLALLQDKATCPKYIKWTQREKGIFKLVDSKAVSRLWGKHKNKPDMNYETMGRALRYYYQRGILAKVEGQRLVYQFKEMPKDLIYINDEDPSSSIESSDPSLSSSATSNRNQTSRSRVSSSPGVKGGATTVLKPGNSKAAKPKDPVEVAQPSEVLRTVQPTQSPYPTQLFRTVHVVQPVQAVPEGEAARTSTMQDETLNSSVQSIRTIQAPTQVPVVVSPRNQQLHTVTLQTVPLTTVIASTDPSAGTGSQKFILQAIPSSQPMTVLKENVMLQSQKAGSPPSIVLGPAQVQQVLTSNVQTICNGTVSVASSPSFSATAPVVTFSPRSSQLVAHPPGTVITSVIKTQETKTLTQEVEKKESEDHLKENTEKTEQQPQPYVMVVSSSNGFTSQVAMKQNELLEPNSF

[2] = system: GABP (HEL nuclear extract); test: competition with a labelled probe; settings: band II not inhibited by mutant competitor; 2 mM HEPES-NaOH pH 7.9, 5 mM KCl, 2% glycerol, 0.01 mM EDTA, 0.25 mM DTT, 0.1 mg/ml BSA, 5 ng/ul poly dI-dC, 50 fmol probe, 40 min at 4 C; 4% native gel, 0.5x TBE; protein in an extract; label: 32P as probe, unlabelled as competitor
[3] = molecular target: T2, FLI-1 (HEL nuclear extract) (UniProt Q01543); test: competition with a labelled probe; settings: band IIIa not inhibited by mutant competitor; 2 mM HEPES-NaOH pH 7.9, 5 mM KCl, 2% glycerol, 0.01 mM EDTA, 0.25 mM DTT, 0.1 mg/ml BSA, 5 ng/ul poly dI-dC, 50 fmol probe, 40 min at 4 C; 4% native gel, 0.5x TBE; protein in an extract; label: 32P as probe, unlabelled as competitor
T2 sequence (looked up, limits assumed): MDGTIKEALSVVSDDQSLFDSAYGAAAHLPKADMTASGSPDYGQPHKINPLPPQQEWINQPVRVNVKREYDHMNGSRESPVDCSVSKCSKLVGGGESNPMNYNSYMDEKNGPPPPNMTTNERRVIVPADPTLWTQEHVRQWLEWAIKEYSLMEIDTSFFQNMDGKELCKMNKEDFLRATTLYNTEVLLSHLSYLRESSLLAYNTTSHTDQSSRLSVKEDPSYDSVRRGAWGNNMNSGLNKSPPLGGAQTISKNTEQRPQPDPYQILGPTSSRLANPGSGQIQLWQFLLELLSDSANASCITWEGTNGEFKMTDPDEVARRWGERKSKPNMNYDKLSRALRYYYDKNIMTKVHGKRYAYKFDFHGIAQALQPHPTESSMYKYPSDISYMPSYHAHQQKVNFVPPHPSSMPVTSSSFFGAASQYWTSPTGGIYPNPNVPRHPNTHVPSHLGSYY

GABPalpha = molecular target: T3, GABPalpha (UniProt Q06546); test: EMSA; settings: GABPalpha alone (band alpha); 2 mM HEPES-NaOH pH 7.9, 5 mM KCl, 2% glycerol, 0.01 mM EDTA, 0.25 mM DTT, 0.1 mg/ml BSA, 5 ng/ul poly dI-dC, 50 fmol probe, 40 min at 4 C; 4% native gel, 0.5x TBE; protein translated in vitro; label: 32P
T3 sequence (looked up, limits assumed): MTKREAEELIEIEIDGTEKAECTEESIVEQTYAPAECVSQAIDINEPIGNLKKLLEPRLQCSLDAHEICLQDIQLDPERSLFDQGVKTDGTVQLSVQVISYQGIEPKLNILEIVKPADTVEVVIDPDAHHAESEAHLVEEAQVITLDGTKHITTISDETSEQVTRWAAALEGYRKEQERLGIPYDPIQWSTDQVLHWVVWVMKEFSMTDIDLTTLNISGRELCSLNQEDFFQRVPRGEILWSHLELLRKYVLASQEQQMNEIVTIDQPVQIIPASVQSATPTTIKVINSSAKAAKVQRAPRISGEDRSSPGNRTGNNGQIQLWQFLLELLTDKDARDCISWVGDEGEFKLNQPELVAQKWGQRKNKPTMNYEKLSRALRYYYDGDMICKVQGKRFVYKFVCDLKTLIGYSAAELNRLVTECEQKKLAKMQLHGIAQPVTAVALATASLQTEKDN

[4] = molecular target: T1, ELF-1 (HEL nuclear extract); test: EMSA supershift; settings: band I inhibited by antibody, cold wild type competes; 2 mM HEPES-NaOH pH 7.9, 5 mM KCl, 2% glycerol, 0.01 mM EDTA, 0.25 mM DTT, 0.1 mg/ml BSA, 5 ng/ul poly dI-dC, 50 fmol probe, 40 min at 4 C; 4% native gel, 0.5x TBE; protein in an extract; label: 32P
[5] = system: GABP (HEL nuclear extract); test: EMSA supershift; settings: band II inhibited by antibody, cold wild type competes; 2 mM HEPES-NaOH pH 7.9, 5 mM KCl, 2% glycerol, 0.01 mM EDTA, 0.25 mM DTT, 0.1 mg/ml BSA, 5 ng/ul poly dI-dC, 50 fmol probe, 40 min at 4 C; 4% native gel, 0.5x TBE; protein in an extract; label: 32P
[6] = molecular target: T2, FLI-1 (HEL nuclear extract); test: EMSA supershift; settings: band IIIa, cold wild type competes; 2 mM HEPES-NaOH pH 7.9, 5 mM KCl, 2% glycerol, 0.01 mM EDTA, 0.25 mM DTT, 0.1 mg/ml BSA, 5 ng/ul poly dI-dC, 50 fmol probe, 40 min at 4 C; 4% native gel, 0.5x TBE; protein in an extract; label: 32P

Sequence	binding result [1]	binding result [2]	binding result [3]	binding result (GABPalpha)	binding result [4]	binding result [5]	binding result [6]
CCCGGGTCGGTGGACTGGGCTG (double strand) [-51 ETSmut]	no binding	no binding	no binding	–	–	–	–
CCCGGGTTTCCGGACTGGGCTG (double strand) [-51 ETS]	–	–	–	binds	binds	binds	binds

The exact form of at least one protein or probe is not confirmed. For some of these results: At least one result comes from cells or an extract, where the contact may be indirect. For some of these results: A negative result means that nothing was seen under these conditions. For some of these results: Tags and fusion partners may be left off the protein sequences shown. For some of these results: At least one verdict rests on a figure or table, not on a statement of the authors.
